From patent publication US11906519B2, “Methods for identifying LILRB-blocking antibodies” (THE BOARD OF REGENTS OF THE UNIVERSITY OF TEXAS SYSTEM, priority 2016, dated 2024)
At least one structure is not confirmed: it was looked up by name or label, or the drawing left a doubt.

Tested on: THP-1 cells
Test: Transwell trans-endothelial migration of THP-1 cells
Format: cell-based, human
Settings: 2.5 μM STAT inhibitor

## Nc1nc(F)nc2c1ncn2[C@@H]1O[C@H](CO)[C@@H](O)[C@@H]1O [fludarabine]
  THP-1 cell transmigration across endothelial cells: not
